According to PubChem BioAssay AID256 (DTP/NCI, 2004):
The list shows only some results of the screen, not a fair sample: it is rich in T/C values a quarter to a half above the control, in often repeated tests (any T/C) and in doses without a T/C. Further doses and runs are listed elsewhere. T/C gives the treated animals as a percentage of the vehicle group. Some entries give survivors of the animals treated and no T/C: the source files T/C as zero there, which appears to mark a toxic dose or a test without result, not a measured value. Some doses without a T/C left all or most animals alive at the check, yet need not have been tolerated: survival well below the control is almost never listed, so the zero probably covers shortened survival too. Counts of survivors are from the toxicity check (mostly the fifth day) where no day follows; animals may have died later. Schedule codes are those of the source, read here as Q, the interval in days (D) or hours (H), X, the number of doses. Some entries hold several experiments; their values stand side by side, smallest first. Additions like (4×) say how often a value occurs here. For survival time, this PubChem deposit counts one and a half times the control or more as active, and values a quarter to a half above the control carry no call in these data; other NCI protocols may use other cut-offs. Some T/C values carry the count of animals alive at the toxicity check (mostly the fifth day); without a count, all were alive then.

System: CD2F1 mice, L1210 leukemia ip, survival T/C
Assay: NCI In Vivo Anticancer Drug Screen. Data for tumor model L1210 Leukemia (intraperitoneal) in CD2F1 (CDF1) mice
Conditions: higher T/C = longer survival
Procedure, shortened: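 Vehicle-treated tumor-bearing mice served as controls (C) for compound-treated mice (T). Reported figure is T divided by C.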

[1] = T/C endpoint: mean survival time, dose: 200.0 mg/kg/injection, schedule: Q01DX009 (ip), vehicle: saline with Tween-80
[2] = T/C endpoint: mean survival time, dose: 400.0 mg/kg/injection, schedule: Q01DX009 (ip), vehicle: saline with Tween-80
[3] = T/C endpoint: mean survival time, dose: 200.0 mg/kg/injection, schedule: Q04DX003 (ip), vehicle: saline with Tween-80
[4] = T/C endpoint: mean survival time, dose: 400.0 mg/kg/injection, schedule: Q04DX003 (ip), vehicle: saline with Tween-80
[5] = T/C endpoint: mean survival time, dose: 400.0 mg/kg/injection, schedule: Q04DX002 (ip), vehicle: saline with Tween-80
[6] = T/C endpoint: mean survival time, dose: 100.0 mg/kg/injection, schedule: Q01DX009 (ip), vehicle: saline with Tween-80
[7] = T/C endpoint: mean survival time, dose: 200.0 mg/kg/injection, schedule: Q04DX002 (ip), vehicle: saline with Tween-80
[8] = T/C endpoint: median survival time, dose: 25.0 mg/kg/injection, schedule: Q01DX005 (ip), vehicle: suspension in saline

SMILES: O=C(COc1ccccc1)N/N=C/c1ccccc1O
- survivor count [1]: 2 of 6
- survivor count [2]: 2 of 6

SMILES: COc1cc(NC(=O)CCl)ccc(=O)c1
- survivor count (T/C endpoint: mean survival time, dose: 100.0 mg/kg/injection, schedule: Q04DX003 (ip), vehicle: saline with Tween-80): 5 of 6
- survivor count [3]: 0 of 6
- survivor count [4]: 0 of 6

SMILES: N#CC(C#N)=Cc1cccc(CC(O)(C(F)(F)F)C(F)(F)F)n1
- survivor count [4]: 0 of 6

SMILES: Nc1cccc2ccc(S(=O)(=O)O)cc12
- survivor count [2]: 3 of 6

SMILES: C=C1C(C)C2C(Cc3ccccc3)NC(=O)C23C(OC(C)=O)/C=C/C(C)(O)CC(C)C/C=C/C3C1O (centres undefined)
- survivor count (T/C endpoint: mean survival time, dose: 12000.0 micrograms/kg/injection, schedule: Q01DX009 (ip), vehicle: Klucel (hydroxypropylcellulose) (HPC)): 4 of 6

SMILES: CN(C)c1ccc2c(NCCCCCCNc3ccnc4cc(N(C)C)ccc34)ccnc2c1
- T/C (T/C endpoint: median survival time, dose: 6.25 mg/kg/injection, schedule: Q01DX009 (ip), vehicle: distilled water + Tween-80 + alcohol): 126 % of control
- T/C (T/C endpoint: median survival time, dose: 12.5 mg/kg/injection, schedule: Q01DX009 (ip), vehicle: distilled water + Tween-80 + alcohol): 125 and 126 % of control
- T/C (T/C endpoint: median survival time, dose: 25.0 mg/kg/injection, schedule: Q01DX009 (ip), vehicle: distilled water + Tween-80 + alcohol): 131 and 138 % of control
- survivor count (T/C endpoint: median survival time, dose: 50.0 mg/kg/injection, schedule: Q01DX009 (ip), vehicle: distilled water + Tween-80 + alcohol): 1 of 10 and 5 of 6

SMILES: O=[N+]([O-])c1[nH]c(Br)nc1Br
- survivor count [4]: 0 of 6

SMILES: O=C1OC(=O)C2C3OC(C4CN=NC43)C12 (centres undefined)
- survivor count [5]: 1 of 3

SMILES: COC(=O)c1nc2ccccc2cc1C#N
- survivor count (T/C endpoint: mean survival time, dose: 400.0 mg/kg/injection, schedule: Q01DX001 (ip), vehicle: saline): 3 of 6

SMILES: CC(C)(C)NC(C1=CC(C)(C)c2ccccc2C1=O)c1ccccc1 (centres undefined)
- survivor count (T/C endpoint: median survival time, dose: 400.0 mg/kg/injection, schedule: Q01DX009 (ip), vehicle: Klucel (hydroxypropylcellulose) (HPC)): 1 of 6

SMILES: CCC(=O)c1ccc2c(c1)N(CCCN1CCN(CCO)CC1)c1ccccc1S2
- survivor count (T/C endpoint: mean survival time, dose: 50.0 mg/kg/injection, schedule: Q04DX003 (ip), vehicle: Klucel (hydroxypropylcellulose) (HPC)): 3 of 6
- survivor count (T/C endpoint: mean survival time, dose: 200.0 mg/kg/injection, schedule: Q04DX003 (ip), vehicle: Klucel (hydroxypropylcellulose) (HPC)): 4 of 6

SMILES: CC(=O)Oc1ccc(Nc2c3ccccc3nc3ccccc23)cc1
- T/C (T/C endpoint: mean survival time, dose: 29.3 mg/kg/injection, schedule: Q01DX009 (ip), vehicle: saline with Tween-80): 135 and 141 % of control
- T/C (T/C endpoint: mean survival time, dose: 44.0 mg/kg/injection, schedule: Q01DX009 (ip), vehicle: saline with Tween-80): 129 % of control
- T/C (T/C endpoint: mean survival time, dose: 66.0 mg/kg/injection, schedule: Q01DX009 (ip), vehicle: saline with Tween-80): 135 % of control
- survivor count [6]: 1 of 6
- survivor count (T/C endpoint: mean survival time, dose: 150.0 mg/kg/injection, schedule: Q01DX001 (ip), vehicle: saline with Tween-80): 1 of 10
- survivor count (T/C endpoint: mean survival time, dose: 150.0 mg/kg/injection, schedule: Q01DX009 (ip), vehicle: saline with Tween-80): 0 of 6 and 7 of 10
- survivor count [7]: 2 of 3
- survivor count (T/C endpoint: mean survival time, dose: 225.0 mg/kg/injection, schedule: Q01DX001 (ip), vehicle: saline with Tween-80): 5 of 10
- survivor count [5]: 0 of 3

SMILES: COc1cc2c(cc1OC)C[N+]1(C)CCc3cc(OC)c(OC)cc3C1C2 (centres undefined)
- survivor count (T/C endpoint: mean survival time, dose: 80.0 mg/kg/injection, schedule: Q01DX001 (ip), vehicle: saline): 3 of 6

SMILES: Cc1cccc(OCC(O)CN2CC2)c1 (centres undefined)
- T/C (T/C endpoint: median survival time, dose: 100.0 mg/kg/injection, schedule: Q01DX005 (ip), vehicle: saline with Tween-80, evaluated on day 26): 135 % of control
- T/C (T/C endpoint: median survival time, dose: 100.0 mg/kg/injection, schedule: Q01DX005 (ip), vehicle: saline with Tween-80, evaluated on day 30): 127 % of control
- survivor count (T/C endpoint: median survival time, dose: 200.0 mg/kg/injection, schedule: Q01DX005 (ip), vehicle: saline with Tween-80): 0 of 6 (2×)
- survivor count (T/C endpoint: median survival time, dose: 277.77 mg/kg/injection, schedule: Q01DX005 (ip), vehicle: saline with Tween-80): 3 of 6

SMILES: COC(=O)C(C(=O)OC)C(Br)(C(=O)OC)C(=O)OC
- survivor count [2]: 6 of 6

SMILES: N/N=C(\N)N(Cc1ccccc1)c1ccccc1
- survivor count (T/C endpoint: mean survival time, dose: 75.0 mg/kg/injection, schedule: Q01DX001 (ip), vehicle: saline): 3 of 6
- survivor count (T/C endpoint: mean survival time, dose: 150.0 mg/kg/injection, schedule: Q01DX001 (ip), vehicle: saline): 0 of 6
- survivor count (T/C endpoint: mean survival time, dose: 300.0 mg/kg/injection, schedule: Q01DX001 (ip), vehicle: saline): 0 of 6

SMILES: COc1ccc(/C=N/NC(=S)Nc2ccccn2)cc1OC
- survivor count [7]: 0 of 3
- survivor count [5]: 0 of 3

SMILES: CCCCNC(=O)Oc1ccc(OCc2ccccc2)cc1
- survivor count [4]: 6 of 6

SMILES: ClC1C(Cl)C(Cl)C(Cl)C(Cl)C1Cl (centres undefined)
- survivor count (T/C endpoint: mean survival time, dose: 400.0 mg/kg/injection, schedule: Q01DX009 (ip), vehicle: other): 4 of 6

SMILES: COc1c(C)ccc2c1CCN1C3=C(CCC21)CC1(CC3)OCCO1 (centres undefined)
- survivor count [2]: 3 of 6

SMILES: C[N+](C)(C)CCC(=O)c1ccc(C(=O)CC[N+](C)(C)C)cc1
- survivor count (T/C endpoint: mean survival time, dose: 400.0 mg/kg/injection, schedule: Q01DX001 (ip), vehicle: saline with Tween-80): 0 of 6

SMILES: CC(=N\N)/C(C)=N/N
- survivor count [3]: 3 of 6
- survivor count [4]: 2 of 6

SMILES: c1ccc(C[n+]2ccccc2)cc1
- survivor count [6]: 0 of 3
- survivor count [1]: 0 of 3

SMILES: CCn1c(C)nc2cc(C(N)=O)ccc21
- survivor count [2]: 0 of 6

SMILES: COc1cccc2c1C(CO)N1C(C#N)C3CC(C(=O)O)C(C1C2)N3C (centres undefined)
- T/C (T/C endpoint: median survival time, dose: 15.0 mg/kg/injection, schedule: Q01DX005 (ip), vehicle: suspension in saline): 134 % of control
- T/C (T/C endpoint: median survival time, dose: 25.0 mg/kg/injection, schedule: Q01DX005 (ip), vehicle: saline): 130 % of control
- T/C [8]: 130 % of control [5 of 6 alive]
- survivor count [8]: 6 of 6
- survivor count (T/C endpoint: median survival time, dose: 41.67 mg/kg/injection, schedule: Q01DX005 (ip), vehicle: suspension in saline): 5 of 6
- survivor count (T/C endpoint: median survival time, dose: 69.44 mg/kg/injection, schedule: Q01DX005 (ip), vehicle: suspension in saline): 2 of 6 and 4 of 6

SMILES: N#CCOc1cccc([N+](=O)[O-])c1
- survivor count [4]: 2 of 6

SMILES: NNc1ccnc2[nH]ncc12
- survivor count (T/C endpoint: mean survival time, dose: 50.0 mg/kg/injection, schedule: Q01DX005 (ip), vehicle: saline): 3 of 6
- survivor count (T/C endpoint: mean survival time, dose: 100.0 mg/kg/injection, schedule: Q01DX005 (ip), vehicle: saline): 0 of 6
- survivor count (T/C endpoint: mean survival time, dose: 200.0 mg/kg/injection, schedule: Q01DX005 (ip), vehicle: saline): 0 of 6

SMILES: CNC(=O)c1ccccc1N=NN(C)C
- T/C (T/C endpoint: mean survival time, dose: 75.0 mg/kg/injection, schedule: Q01DX009 (ip), vehicle: Klucel (hydroxypropylcellulose) (HPC)): 130 and 145 % of control
- survivor count (T/C endpoint: mean survival time, dose: 300.0 mg/kg/injection, schedule: Q01DX009 (ip), vehicle: Klucel (hydroxypropylcellulose) (HPC)): 0 of 6
